This experiment deals with T1, msGFP2-Pex19 (S. cerevisiae) (UniProt Q07418).
T1 sequence: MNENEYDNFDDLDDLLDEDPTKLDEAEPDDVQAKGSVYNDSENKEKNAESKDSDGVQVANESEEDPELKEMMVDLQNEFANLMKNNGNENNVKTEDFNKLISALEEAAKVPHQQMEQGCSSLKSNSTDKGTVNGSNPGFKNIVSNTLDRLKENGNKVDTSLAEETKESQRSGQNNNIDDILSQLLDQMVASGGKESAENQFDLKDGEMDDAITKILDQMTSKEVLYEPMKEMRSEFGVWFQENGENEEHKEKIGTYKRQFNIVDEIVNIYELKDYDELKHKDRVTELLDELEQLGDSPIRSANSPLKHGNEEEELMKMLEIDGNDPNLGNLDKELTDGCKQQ
Nature of the experiment: co-IP; GFP-Trap agarose beads on yeast lysate (50 mM HEPES pH 7.4, 150 mM NaCl, 10% glycerol, 1% CHAPS), 15 min at 4 °C; msGFP2-Pex19 as bait; Western blot against the Alfa tag and GFP. (In general: In western blotting, separated proteins are transferred to a membrane and probed.)

These are yes or no findings as the source states them, for the method shown. In cells and extracts the contact can be indirect. Some entries that bind do so weakly or less than the wild type. Sequences can lack the tags named with a protein.

B1: Pex3-mKate2-AlfaTag (protein, UniProt P28795 1-441)
chain: MAPNQRSRSLLQRHRGKVLISLTGIAALFTTGSVVVFFVKRWLYKQQLRITEQHFIKEQIKRRFEQTQEDSLYTIYELLPVWRMVLNENDLNLDSIVTQLKDQKNQLTRAKSSESRESSPLKSKAELWNELELKSLIKLVTVTYTVSSLILLTRLQLNILTRNEYLDSAIKLTMQQENCNKLQNRFYNWVTSWWSDPEDKADDAMVMAAKKSKKEGQEVYINEQAFLSLSWWILNKGWLSYNEIITNQIEIEFDGIHPRDTLTLEEFSSRLTNIFRNTNSQIFQQNNNNLTSILLPKDSSGQEFLLSQTLDADALTSFHSNTLVFNQLVNELTQCIESTATSIVLESLINESFHFIMNKVGIKTIAKKKPGQEDQQQYQMAVFAMSMKDCCQEMLQTTAGSSHSGSVNEYLATLDSVQPLDDLSASVYSNFGVSSSFSFKP
Consider B1, for which the binding result is given as “binds”.

B2: Pex3(W128K, L131K)-mKate2-AlfaTag (protein, UniProt P28795 1-441)
chain: MAPNQRSRSLLQRHRGKVLISLTGIAALFTTGSVVVFFVKRWLYKQQLRITEQHFIKEQIKRRFEQTQEDSLYTIYELLPVWRMVLNENDLNLDSIVTQLKDQKNQLTRAKSSESRESSPLKSKAELKNEKELKSLIKLVTVTYTVSSLILLTRLQLNILTRNEYLDSAIKLTMQQENCNKLQNRFYNWVTSWWSDPEDKADDAMVMAAKKSKKEGQEVYINEQAFLSLSWWILNKGWLSYNEIITNQIEIEFDGIHPRDTLTLEEFSSRLTNIFRNTNSQIFQQNNNNLTSILLPKDSSGQEFLLSQTLDADALTSFHSNTLVFNQLVNELTQCIESTATSIVLESLINESFHFIMNKVGIKTIAKKKPGQEDQQQYQMAVFAMSMKDCCQEMLQTTAGSSHSGSVNEYLATLDSVQPLDDLSASVYSNFGVSSSFSFKP
On to B2, for which the binding result is recorded as “no binding”.

The values are drawn from paper PMC12238565.
